This is an account of results in patent US20200297796A1.

By UniProt entry, the sequences of proteins in these tests, tags left out. Where a name states a change or a piece, a line headed by the entry shows the natural chain unless it says otherwise.
UniProt Q13098: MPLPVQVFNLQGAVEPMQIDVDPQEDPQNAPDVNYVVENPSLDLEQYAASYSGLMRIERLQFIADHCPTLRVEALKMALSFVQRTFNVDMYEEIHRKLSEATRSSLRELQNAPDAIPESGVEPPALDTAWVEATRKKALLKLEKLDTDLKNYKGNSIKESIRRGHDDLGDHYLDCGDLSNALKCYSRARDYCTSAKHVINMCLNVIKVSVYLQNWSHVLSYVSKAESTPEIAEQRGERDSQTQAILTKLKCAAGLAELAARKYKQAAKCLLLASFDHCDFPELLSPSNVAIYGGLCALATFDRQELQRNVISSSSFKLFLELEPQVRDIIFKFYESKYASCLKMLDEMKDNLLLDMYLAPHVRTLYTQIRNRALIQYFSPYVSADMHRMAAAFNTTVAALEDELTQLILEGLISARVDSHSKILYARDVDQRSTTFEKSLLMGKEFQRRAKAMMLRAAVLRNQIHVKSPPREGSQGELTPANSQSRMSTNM
UniProt Q92466: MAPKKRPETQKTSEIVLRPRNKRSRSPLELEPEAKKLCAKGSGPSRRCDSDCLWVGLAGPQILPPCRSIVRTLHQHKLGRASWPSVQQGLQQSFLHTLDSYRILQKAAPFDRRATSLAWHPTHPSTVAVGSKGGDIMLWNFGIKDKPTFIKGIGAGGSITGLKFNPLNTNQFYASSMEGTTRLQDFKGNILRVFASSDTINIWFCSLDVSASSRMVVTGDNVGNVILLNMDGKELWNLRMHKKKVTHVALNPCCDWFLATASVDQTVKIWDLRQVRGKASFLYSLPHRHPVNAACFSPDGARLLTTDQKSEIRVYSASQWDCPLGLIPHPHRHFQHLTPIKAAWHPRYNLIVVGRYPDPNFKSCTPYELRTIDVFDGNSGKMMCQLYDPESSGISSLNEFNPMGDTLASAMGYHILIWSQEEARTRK

Results are given in words; binding and its absence hold for the method and conditions named. In cells and extracts the contact can be indirect. Some binding calls cover weakened binding; strength is not graded here. For some assays here: Sequences can lack the tags named with a protein.

The target in assay [1] is COP9 signalosome (CSN) complex of WT cells (human) (UniProt Q13098). The assay can be described thus: reciprocal co-immunoprecipitation, anti-CSN3 antibody, Western blot.
Assay [2] shares this target. The assay can be described thus: reciprocal co-immunoprecipitation, anti-FLAG resin or anti-CSN3 antibody, Western blot.

For the molecule DDB2 (from UniProt Q92466 1-427), in assay [1], the binding result was “binds”.

B1: FBXL15-FLAG (protein, UniProt Q9H469 1-300, looked up, not shown: small tags and cut ends)
chain: MEPPMEPSGGEQEPGAVRFLDLPWEDVLLPHVLNRVPLRQLLRLQRVSRAFRSLVQLHLAGLRRFDAAQVGPQIPRAALARLLRDAEGLQELALAPCHEWLSDEDLVPVLARNPQLRSVALGGCGQLSRRALGALAEGCPRLQRLSLAHCDWVDGLALRGLADRCPALEELDLTACRQLKDEAIVYLAQRRGAGLRSLSLAVNANVGDAAVQELARNCPELHHLDLTGCLRVGSDGVRTLAEYCPVLRSLRVRHCHHVAESSLSRLRKRGVDIDVEPPLHQALVLLQDMAGFAPFVNLQV
As to B1, the binding result in assay [2] is recorded as “binds”.
